From patent US20250115668A1

Key:
[1] = target: human OX40 on hPBMC T cells (CD3+CD8+ / CD3+CD4+) (human); assay: flow cytometry, Log(MFI), gated on CD3+CD8+ T cells of human PBMCs stimulated 72 h with plate-bound anti-CD3/anti-CD28; no isotype control shown
[2] = target: human OX40 on hPBMC T cells (CD3+CD8+ / CD3+CD4+) (human); assay: flow cytometry, Log(MFI), gated on CD3+CD4+ T cells of human PBMCs stimulated 72 h with plate-bound anti-CD3/anti-CD28; no isotype control shown

binding [1]: binds
binding [2]: binds
B1: OX-H7-IgG1 (antibody, V domains shown)
VH: QITLKESGPTLVKPAQTLTLTCTFSGFSLSTSGVGVGWIRQPPGKALEWLALIYWDDDKLYSPSLKSRLTITKDTSKNQVVLAMTNMDPVDTATYYCAHSQLGRDDYWGQGTLVTVSS
VL: EIVLTQSPATLCLSPGERATLSCRASQSVSNYLAWYQQKPGQAPRLLIYAASSRATGIPARFSGSGSGTDFTLTISTLEPEDFAVYYCQQRRDWPPTFGQGTKVEIK

No constants are given. Whether binding was seen depends on the method and setting. A result given as binding can be weak or reduced; the word gives no strength.
